Out of some 31,000 sequences screened, about 1,400 (4.5%) were called active.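 How the source made its calls: active means median seed-adjusted z-score above 1 or below -1; inactive means the rest.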 The list shows a part of the results.
assay: Novel Modifiers of Survival Motor Neuron (SMN) Protein: Gene Identification via Genome-wide siRNA Screen; conditions: HEK293T SMN2-luciferase reporter, siRNA knockdown, 72 h; actives lie on both sides;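 further: luminescence tracks full-length SMN protein made from the SMN2 reporter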
How it was run: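 Luciferase signal, proportional to full-length SMN made from an SMN2 cDNA reporter in stable HEK293T cells, was read 72 h after siRNA reverse transfection. Values were expressed as MAD scores after non-targeting-control normalization and log10 conversion; seed analysis flagged off-targets.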

Sequence	median seed-adjusted z-score
UAACUUCGAUGACACCAUUTT against TXNDC5	inactive: -0.753
CAACAUGCCCAUUCGCUUUTT against ADIPOQ	inactive: 0.557
GGAUGUUAAUAAUCAGUUATT against BRDT	inactive: -0.357
GGAGAUCUUGCAUCGAGAATT against ATP2C1	inactive: -0.112
AGUGGGUGCUGAACCAUGATT against FES	inactive: 0.402
GAUACUGACUACGACAAUUTT against PAEP	inactive: -0.0632
AGGAAUUCAUGGACAAGAATT against HNMT	inactive: 0.336
GUAAACCACCUGCACCUAATT against TIAL1	inactive: -0.985
GGGUGUAAUUCAUAAGGGUTT against PSMD1	active: -1.61
CAUGGGACGUGUGAACUAUTT against GLB1	inactive: -0.543
GCUCUUUGAGCGCAUGUUATT against CAPN5	inactive: 0.535
GGACCUCGGUAAUAUGGAATT against ALCAM	inactive: -0.743
GGCGCAAACGGAAACAGCATT against SRPK3	inactive: -0.643
GGUGAACCUUAGUACCUAATT against TP53	inactive: 0.214
CCCUUUCAGUGCAACGAGUTT against ZNF2	inactive: -0.119
GAAAUGACAUUAGCUGAUUTT against CLIC4	inactive: -0.498
GGCUCAACUAUGACCGGAATT against PPFIA3	inactive: -0.0669
GGUCUACAGUAAGCGGUCATT against SNRNP70	inactive: -0.405
GCCUGUAUGUUUAUGGAGATT against LACE1	inactive: 0.166
GGCACAGUACGAUGACAUUTT against KRT86	inactive: -0.689
CCACUUACCUUAUGUCAGUTT against CD27	inactive: 0.5
GGAGCUAUGAGGAUUUCAATT against HSD3B7	inactive: -0.0819
CCAUUAUCCGGGACUUCUATT against CLDN3	inactive: -0.0833

Random excerpt: two entries already listed
Sequence	median seed-adjusted z-score
GGAGAUCUUGCAUCGAGAATT against ATP2C1	inactive: -0.112
GGGUGUAAUUCAUAAGGGUTT against PSMD1	active: -1.61

Continuation:

Sequence	median seed-adjusted z-score
GGUUCCACCUGAAUGAGCATT against CAPNS1	inactive: 0.35
GGGCUUCAACGAGUACUUUTT against PRDM16	inactive: 0.185
GGUAAUGACUCCACAGGGATT against SNRPN	inactive: -0.571
GAUAGACCCAGAUAUGUCATT against TAF2	inactive: -0.243
GGAUCUGACGGGUGACAAATT against SPAG9	inactive: 0.0795
GGGUAACAUUUGUCGAUCATT against ACP1	inactive: -0.277
GGACUACAAAGUCGACCAATT against NDUFB10	inactive: -0.39
CCCUGCUGCUUUGCCUACATT against CCL5	inactive: 0.11
GAAUCUUGAUGAGUCUAUATT against KIF6	inactive: -0.0396
GGAUAAGGACGACCAGAUUTT against HPCAL4	inactive: 0.282
GUUUCGAUUAUAAAGAUCATT against CYP2C19	inactive: -0.0674
AGAUAGCCGCUUACAGAAATT against NEFH	inactive: 0.688
GAGAAAGGCUUGUAUAGGATT against FKBP5	inactive: -0.598
CGGCAUUUGUAGUACUAAUTT against GPR155	inactive: 0.0681
GGAAAGUUGAUUUUUAUGATT against MS4A6E	inactive: -0.341
UGAACCUUGUGAUAGAUGATT against SNRPG	active: -3.09
CAAGCUAGAGAUUCGCUAUTT against CXXC1	inactive: -0.841
AAUCAUCGGUUAUAAACCATT against ZNF585B	inactive: 0.158
CAAUGGUCUUAAGCCCAUUTT against GLMN	inactive: 0
GGAACGCAGUCGGAUCUCATT against RHOU	active: -1.44
AGACAUCAAGUCCCAUUAUTT against CIB1	inactive: 0.14
GUACAGGAAAGAUUUUAUATT against OTUD4	inactive: 0.167
GGCCUUUCACCAUCCAUGATT against MICAL2	inactive: -0.0224

Nothing new here: entries from further up.
Sequence	median seed-adjusted z-score
UGAACCUUGUGAUAGAUGATT against SNRPG	active: -3.09
CAAGCUAGAGAUUCGCUAUTT against CXXC1	inactive: -0.841
AAUCAUCGGUUAUAAACCATT against ZNF585B	inactive: 0.158

More entries.

Sequence	median seed-adjusted z-score
GGAUUCAGACCGCAAAUAUTT against TPM2	inactive: 0.305
AAACUUCACUGUUGCCUUUTT against NAPSA	inactive: -0.336
CAGUAUGCCUGAUCCAGUATT against PCM1	inactive: -0.00218
GAUUAUCGAGGUACAUGUUTT against DNAJA4	inactive: 0.145
CGGAGUUCAUUAUGCUGAATT against ELAC2	inactive: 0.016
CAACAAGUCUAACCUCAUUTT against ZNF154	inactive: 0
GACAGUCGGUUUUCCCAUUTT against LGALS3	inactive: 0.14
GGACUAAGAAUGAAGAGUUTT against ZSCAN16	inactive: -0.274
GCAAUGAUUUAUACCAUGATT against ATP5B	inactive: 0.393
GCAUGUACCUGGUAUCUCUTT against ITIH1	inactive: 0.0403
GCCUCUCUGCAAUGCGUGATT against KLK14	inactive: -0.0998
GCUUAUACAUUCCGAUGAATT against PTPRZ1	active: 1.73
GGCGAAGAGGGAUCAAGUATT against ZNF24	inactive: 0.388
GGGUGCCUAUCUAAGUGGATT against HSPB7	inactive: -0.288
GGAAUCUGACCUAACCUUUTT against PDXDC1	inactive: 0.665
GGCUUAGCUCUCAUGAUUATT against PCDHA8	inactive: 0
CUUCAUCGAUAAUUCCACATT against ELOVL3	inactive: 0
CCAUGUUAAAGAUGGGUUUTT against DDX59	inactive: -0.859
GUACCUUUCGAGAAGAUUATT against NADK	inactive: -0.201
GCCCAAAAGAGUCUAGUGATT against RREB1	inactive: -0.414
GGCAACCACUCUUCACCAATT against B4GALT2	inactive: -0.0367
CAAUGCAUUUAACUCGUUATT against SLC25A12	inactive: -0.275
CCUCCUCAAAGACAACCGATT against EMR3	inactive: 0.169
